In patent US20190144547A1:
Results are given in words; binding and its absence hold for the method and conditions named. Some results given as binding are weak or reduced against the parent protein; the word gives no strength.

Sequences of proteins named here, by UniProt entry; tags and fusion partners are left off. A change or cut given only in a name is not applied to a line headed by its entry.
UniProt P06756: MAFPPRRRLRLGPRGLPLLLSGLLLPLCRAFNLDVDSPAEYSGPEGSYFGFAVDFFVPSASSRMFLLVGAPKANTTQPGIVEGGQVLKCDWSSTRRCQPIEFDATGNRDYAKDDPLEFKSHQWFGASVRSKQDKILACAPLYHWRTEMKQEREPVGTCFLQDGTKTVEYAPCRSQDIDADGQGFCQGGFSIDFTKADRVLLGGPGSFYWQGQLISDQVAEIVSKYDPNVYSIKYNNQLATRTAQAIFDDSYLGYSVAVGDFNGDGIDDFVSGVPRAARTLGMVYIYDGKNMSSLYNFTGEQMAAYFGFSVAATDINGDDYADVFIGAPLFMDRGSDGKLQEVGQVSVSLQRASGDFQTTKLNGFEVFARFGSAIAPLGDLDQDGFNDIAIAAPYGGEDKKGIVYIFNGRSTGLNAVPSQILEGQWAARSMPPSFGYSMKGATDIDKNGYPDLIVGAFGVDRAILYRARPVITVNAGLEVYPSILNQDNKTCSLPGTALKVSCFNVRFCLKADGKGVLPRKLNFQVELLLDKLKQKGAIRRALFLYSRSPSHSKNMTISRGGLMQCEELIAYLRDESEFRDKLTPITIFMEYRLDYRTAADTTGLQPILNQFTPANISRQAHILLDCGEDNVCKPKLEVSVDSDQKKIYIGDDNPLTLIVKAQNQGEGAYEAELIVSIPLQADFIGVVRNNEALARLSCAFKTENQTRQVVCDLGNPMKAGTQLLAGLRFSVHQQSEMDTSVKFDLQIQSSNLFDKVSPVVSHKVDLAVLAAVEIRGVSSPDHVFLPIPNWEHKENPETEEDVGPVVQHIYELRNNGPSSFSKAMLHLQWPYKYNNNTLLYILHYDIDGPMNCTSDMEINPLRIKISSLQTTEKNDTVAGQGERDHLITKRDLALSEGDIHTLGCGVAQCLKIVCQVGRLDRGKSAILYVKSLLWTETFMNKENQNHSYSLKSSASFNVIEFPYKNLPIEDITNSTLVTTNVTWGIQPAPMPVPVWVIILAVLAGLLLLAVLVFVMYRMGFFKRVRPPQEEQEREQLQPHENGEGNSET
UniProt P18564: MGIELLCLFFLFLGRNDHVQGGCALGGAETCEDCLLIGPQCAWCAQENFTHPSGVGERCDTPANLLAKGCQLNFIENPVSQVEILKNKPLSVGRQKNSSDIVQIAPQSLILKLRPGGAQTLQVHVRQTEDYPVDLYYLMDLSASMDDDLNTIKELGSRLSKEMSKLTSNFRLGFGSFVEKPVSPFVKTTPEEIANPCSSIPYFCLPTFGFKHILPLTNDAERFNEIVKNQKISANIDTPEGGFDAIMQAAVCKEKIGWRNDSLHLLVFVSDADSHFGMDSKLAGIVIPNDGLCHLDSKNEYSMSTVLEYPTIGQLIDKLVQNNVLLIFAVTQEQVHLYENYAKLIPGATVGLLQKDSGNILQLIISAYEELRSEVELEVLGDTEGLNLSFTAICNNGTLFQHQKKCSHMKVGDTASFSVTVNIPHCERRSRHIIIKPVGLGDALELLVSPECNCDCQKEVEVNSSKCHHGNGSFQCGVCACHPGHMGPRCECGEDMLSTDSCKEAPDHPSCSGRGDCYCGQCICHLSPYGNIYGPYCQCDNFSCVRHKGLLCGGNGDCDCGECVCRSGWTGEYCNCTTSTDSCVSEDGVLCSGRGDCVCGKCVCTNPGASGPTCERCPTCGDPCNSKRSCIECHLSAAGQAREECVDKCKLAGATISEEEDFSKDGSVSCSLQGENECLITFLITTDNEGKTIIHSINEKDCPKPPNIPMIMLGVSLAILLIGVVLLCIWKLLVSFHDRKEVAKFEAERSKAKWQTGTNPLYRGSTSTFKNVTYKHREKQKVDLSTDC

Assays:
[1] = target: T1, recombinant human αvβ6 integrin (human) (UniProt P06756+P18564); experiment: competitive ELISA, antibody titrated against αvβ6 on LAP-coated plate
[2] = target: T1, recombinant human αvβ6 integrin (human); experiment: competitive binding ELISA, αvβ6 on pre-coated LAP
[3] = target: T1, recombinant human αvβ6 integrin (human); experiment: competitive ELISA

Measured: binding

B1: anti-αv integrin antibody DI17E6 (Abituzumab) (antibody, V domains shown)
VH: QVQLQQSGGELAKPGASVKVSCKASGYTFSSFWMHWVRQAPGQGLEWIGYINPRSGYTEYNEIFRDKATMTTDTSTSTAYMELSSLRSEDTAVYYCASFLGRGAMDYWGQGTTVTVSS
VL: DIQMTQSPSSLSASVGDRVTITCRASQDISNYLAWYQQKPGKAPKLLIYYTSKIHSGVPSRFSGSGSGTDYTFTISSLQPEDIATYYCQQGNTFPYTFGQGTKVEIKR
binds: all assays above
